Results deposited as PubChem BioAssay AID1224830 (NIAID, 2016).
Purpose: 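Host factors that control LPS-induced TNF expression in human macrophages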 (primary screen). System: human THP-1 monocytic leukaemia cells, TNF dual-luciferase reporter clone, PMA-differentiated to macrophage-like cells. Reagent: siRNA pool against human genes, 50 nM. Time to read-out: LPS for 4 h, given about 3 days after siRNA transfection. Challenge: bacterial LPS (TLR4 ligand), 10 ng/ml. Read-out: 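TNF firefly reporter luminescence divided by renilla, normalised to the plate median, then turned into a robust z-score for each replicate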. Reading the numbers: TNF reporter robust z-score: higher = stronger TNF reporter response to LPS. Call rule: 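Each well counts as active if its z-score is over 2.8 or under -1.5; controls are left without a call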.
Shown is one part, drawn at random, of about 18,000 reagents tested. Over the whole deposit, about 2,900 (16%) got an active call. 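Calls are made per well; low scores hint the gene aids the LPS response, high scores that it dampens it.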 Unmarked entries are inactive. Repeated entries: four replicate wells of each siRNA pool.

| Gene | TNF reporter robust z-score |
| --- | --- |
| TXNL4A | -0.16 |
| TXNL4A | 0.1 |
| TXNL4A | -0.02 |
| TXNL4A | -0.36 |
| FBLN2 | 1.58 |
| FBLN2 | 0 |
| FBLN2 | 0.71 |
| FBLN2 | 0.36 |
| MYORG | 2.57 |
| MYORG | 0.15 |
| MYORG | -1 |
| MYORG | -0.25 |
| ABCB5 | -0.24 |
| ABCB5 | -0.27 |
| ABCB5 | -1.16 |
| ABCB5 | 0.09 |
| NCLN | -1.01 |
| NCLN | -0.64 |
| NCLN | -0.15 |
| NCLN | -0.05 |
| MEPE | -0.75 |
| MEPE | 0.38 |
| MEPE | -0.84 |
| MEPE | -0.07 |
| ITPK1 | 0.38 |
| ITPK1 | 0.28 |
| ITPK1 | 0.68 |
| ITPK1 | -0.31 |
| IL36R | -0.39 |
| IL36R | 0.95 |
| IL36R | -0.16 |
| IL36R | 0.4 |
| FABP6 | -1.16 |
| FABP6 | -0.46 |
| FABP6 | -0.34 |
| ENTPD1 | 0.87 |
| ENTPD1 | 1.9 |
| ENTPD1 | 0.43 |
| ENTPD1 | 1.39 |
| RPL30 | -0.19 |
| RPL30 | 0.94 |
| RPL30 | 0.92 |
| RPL30 | 0.17 |
| ABCC8 | -0.22 |
| ABCC8 | -0.45 |
| ABCC8 | -0.35 |
| ABCC8 | 0 |
| HOXD13 | 0.65 |
| HOXD13 | 0.21 |
| HOXD13 | 0.16 |
| HOXD13 | 0.66 |
| TOMM40L | -1.27 |
| TOMM40L | -0.92 |
| TOMM40L | -0.86 |
| TOMM40L | -1.13 |
| TCAP | -1.79 (active) |
| TCAP | -1.84 (active) |
| TCAP | -1.65 (active) |
| TCAP | -1.64 (active) |
| ELOF1 | -0.57 |
| ELOF1 | -0.41 |
| ELOF1 | -0.6 |
| ELOF1 | -0.51 |
| NISCH | -0.3 |
| NISCH | 0.26 |
| NISCH | -0.33 |
| NISCH | 0.14 |
| TYW3 | -0.39 |
| TYW3 | -0.82 |
| TYW3 | -1.02 |
| TYW3 | -0.54 |
| ITGB1 | -1.28 |
| ITGB1 | -0.34 |
| ITGB1 | -1.34 |
| ITGB1 | -0.82 |

9 entries from above, reformatted:
TCAP
- TNF reporter robust z-score: -1.79 (active)

TCAP
- TNF reporter robust z-score: -1.84 (active)

TCAP
- TNF reporter robust z-score: -1.65 (active)

TCAP
- TNF reporter robust z-score: -1.64 (active)

ELOF1
- TNF reporter robust z-score: -0.57

ELOF1
- TNF reporter robust z-score: -0.41

ELOF1
- TNF reporter robust z-score: -0.6

ELOF1
- TNF reporter robust z-score: -0.51

NISCH
- TNF reporter robust z-score: -0.3
